Here are results for 4 molecules from paper PMC9293949.

By UniProt entry, the sequences of proteins in these tests, tags left out. Where a name states a change or a piece, a line headed by the entry shows the natural chain unless it says otherwise.
UniProt O60674: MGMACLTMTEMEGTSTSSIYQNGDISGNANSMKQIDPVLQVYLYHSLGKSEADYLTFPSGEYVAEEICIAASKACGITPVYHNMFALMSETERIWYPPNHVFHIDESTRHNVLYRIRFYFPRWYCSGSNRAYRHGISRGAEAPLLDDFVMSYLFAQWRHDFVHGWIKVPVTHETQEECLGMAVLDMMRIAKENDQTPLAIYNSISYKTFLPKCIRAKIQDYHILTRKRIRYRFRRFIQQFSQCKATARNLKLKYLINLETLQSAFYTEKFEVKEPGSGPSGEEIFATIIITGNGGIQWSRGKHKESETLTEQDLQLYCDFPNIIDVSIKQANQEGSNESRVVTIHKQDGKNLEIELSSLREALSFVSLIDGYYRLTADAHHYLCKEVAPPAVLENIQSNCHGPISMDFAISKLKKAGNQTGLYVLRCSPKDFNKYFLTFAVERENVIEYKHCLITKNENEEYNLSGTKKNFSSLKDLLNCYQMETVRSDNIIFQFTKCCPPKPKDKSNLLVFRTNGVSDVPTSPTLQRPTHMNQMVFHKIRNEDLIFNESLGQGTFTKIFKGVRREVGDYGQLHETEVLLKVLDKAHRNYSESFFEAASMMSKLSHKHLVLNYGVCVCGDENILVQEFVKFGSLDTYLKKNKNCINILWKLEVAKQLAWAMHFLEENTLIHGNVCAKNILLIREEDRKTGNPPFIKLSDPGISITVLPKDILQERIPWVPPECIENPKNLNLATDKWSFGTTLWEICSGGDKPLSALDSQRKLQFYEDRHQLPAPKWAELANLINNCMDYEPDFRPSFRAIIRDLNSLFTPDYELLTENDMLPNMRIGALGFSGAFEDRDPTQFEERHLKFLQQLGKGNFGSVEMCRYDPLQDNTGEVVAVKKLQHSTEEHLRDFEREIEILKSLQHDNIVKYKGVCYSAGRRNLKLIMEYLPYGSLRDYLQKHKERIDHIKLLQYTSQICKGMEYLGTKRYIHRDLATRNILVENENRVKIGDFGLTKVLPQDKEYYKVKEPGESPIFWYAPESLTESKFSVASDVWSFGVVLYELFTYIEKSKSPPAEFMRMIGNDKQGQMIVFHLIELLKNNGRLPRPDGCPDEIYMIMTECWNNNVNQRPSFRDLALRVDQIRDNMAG
UniProt O14777: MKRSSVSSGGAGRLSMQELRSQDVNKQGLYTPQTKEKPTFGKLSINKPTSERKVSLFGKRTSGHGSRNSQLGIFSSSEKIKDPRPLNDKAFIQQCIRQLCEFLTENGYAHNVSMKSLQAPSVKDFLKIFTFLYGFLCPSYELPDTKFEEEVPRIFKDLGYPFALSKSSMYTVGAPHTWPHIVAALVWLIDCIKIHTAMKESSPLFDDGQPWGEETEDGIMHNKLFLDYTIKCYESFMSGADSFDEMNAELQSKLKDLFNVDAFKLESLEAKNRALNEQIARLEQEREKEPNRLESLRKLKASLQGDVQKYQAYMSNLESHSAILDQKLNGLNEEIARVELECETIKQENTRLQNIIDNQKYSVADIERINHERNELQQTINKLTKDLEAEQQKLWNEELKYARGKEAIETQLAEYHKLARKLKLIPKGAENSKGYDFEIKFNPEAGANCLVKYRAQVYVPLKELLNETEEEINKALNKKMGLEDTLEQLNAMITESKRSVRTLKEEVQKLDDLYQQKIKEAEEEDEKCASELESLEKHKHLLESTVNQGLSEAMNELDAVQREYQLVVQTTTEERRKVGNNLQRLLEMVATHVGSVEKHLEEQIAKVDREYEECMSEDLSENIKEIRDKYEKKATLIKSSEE
UniProt O96017: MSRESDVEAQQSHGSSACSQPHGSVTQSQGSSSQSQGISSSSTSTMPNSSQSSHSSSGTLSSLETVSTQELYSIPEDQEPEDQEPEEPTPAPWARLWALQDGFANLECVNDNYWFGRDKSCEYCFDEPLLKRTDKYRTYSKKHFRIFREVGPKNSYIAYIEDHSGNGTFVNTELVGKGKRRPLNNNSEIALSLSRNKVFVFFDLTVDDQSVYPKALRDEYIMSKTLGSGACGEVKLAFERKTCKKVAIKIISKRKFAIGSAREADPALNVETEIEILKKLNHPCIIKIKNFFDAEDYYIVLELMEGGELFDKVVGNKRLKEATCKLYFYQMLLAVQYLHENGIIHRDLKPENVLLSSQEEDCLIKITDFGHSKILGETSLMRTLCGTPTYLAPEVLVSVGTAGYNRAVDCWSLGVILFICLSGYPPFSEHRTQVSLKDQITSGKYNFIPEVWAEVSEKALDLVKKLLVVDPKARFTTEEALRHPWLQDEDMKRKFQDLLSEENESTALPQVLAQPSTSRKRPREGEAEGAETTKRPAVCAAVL

These are yes or no findings as the source states them, for the method shown. In cells and extracts the contact can be indirect. Some results given as binding are weak or reduced against the parent protein; the word gives no strength.

Assay [1] concerns the target T1, Mps1 (spindle assembly checkpoint kinase), coexpressed in HEK293T cells (UniProt P33981).
T1 sequence: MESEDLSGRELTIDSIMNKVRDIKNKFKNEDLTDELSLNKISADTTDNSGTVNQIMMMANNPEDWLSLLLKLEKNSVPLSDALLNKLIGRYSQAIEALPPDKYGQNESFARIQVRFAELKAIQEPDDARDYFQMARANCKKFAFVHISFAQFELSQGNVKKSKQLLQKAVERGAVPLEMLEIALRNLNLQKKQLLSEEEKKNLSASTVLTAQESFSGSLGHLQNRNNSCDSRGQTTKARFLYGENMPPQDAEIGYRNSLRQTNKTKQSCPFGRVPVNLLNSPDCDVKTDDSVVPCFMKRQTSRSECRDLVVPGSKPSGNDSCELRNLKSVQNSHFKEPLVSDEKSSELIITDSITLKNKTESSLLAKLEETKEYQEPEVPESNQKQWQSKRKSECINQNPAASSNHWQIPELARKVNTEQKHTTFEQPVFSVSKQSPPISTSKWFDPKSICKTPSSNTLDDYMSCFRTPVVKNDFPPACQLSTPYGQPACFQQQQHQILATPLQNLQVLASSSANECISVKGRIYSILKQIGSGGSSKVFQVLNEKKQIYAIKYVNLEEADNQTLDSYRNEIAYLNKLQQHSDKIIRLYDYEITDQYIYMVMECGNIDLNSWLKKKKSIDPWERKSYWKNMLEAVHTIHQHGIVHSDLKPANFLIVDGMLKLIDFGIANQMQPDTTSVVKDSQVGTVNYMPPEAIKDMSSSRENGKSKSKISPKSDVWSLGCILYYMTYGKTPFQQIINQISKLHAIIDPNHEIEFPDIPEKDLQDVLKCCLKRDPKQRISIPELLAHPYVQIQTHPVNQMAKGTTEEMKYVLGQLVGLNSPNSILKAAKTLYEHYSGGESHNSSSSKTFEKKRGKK
As to the kind of experiment: co-IP; co-transfection of CHK2 (WT, Y156F or Y156E) and Mps1 in HEK293T cells; 50 ng/ml nocodazole overnight before collection.

Assay [2] deals with endogenous JAK2 in HeLa CHK2 KO cells stably expressing myc-CHK2 WT (human (endogenous in HeLa)) (UniProt O60674). As to the kind of experiment: co-IP; HeLa CHK2 KO cells stably expressing myc-CHK2 WT; IP with anti-JAK2 or anti-myc antibody; with or without nocodazole overnight (moderately increased by nocodazole); JAK2 inhibitor treatment also tested.
Assay [3] addresses HEC1 in HeLa CHK2 KO cells stably expressing WT or Y156F CHK2 (human (endogenous in HeLa)) (UniProt O14777). Kind of assay: co-IP; HeLa CHK2 KO stable cell lines with WT CHK2 (#103) or Y156F CHK2 (#A2), nocodazole overnight; interaction higher in the WT line.

“CHK2 WT (checkpoint kinase 2), expressed by transfection in HEK293T cells (from UniProt O96017 1-543) (enzyme)”: the binding result in assay [1] is “binds”. For the molecule “CHK2 Y156E (phospho-mimicking mutant), expressed by transfection in HEK293T cells (from UniProt O96017 1-543) (enzyme)”, the binding entry in assay [1] was “binds”. Regarding “myc-CHK2 WT-FLAG, stably expressed in HeLa CHK2 KO cells (from UniProt O96017 1-543) (enzyme)”, in assay [2], the binding entry is reported as “binds”.

B1: Mps1 in HeLa CHK2 KO cells stably expressing WT or Y156F CHK2 (enzyme, UniProt P33981 1-857)
chain: T1 sequence
As for B1, the binding entry in assay [3] is listed as “binds”.
